Results are given in words; binding and its absence hold for the method and conditions named. Some binding calls cover weakened binding; strength is not graded here.
Target: STAT1-GST Fusion Protein (UniProt P42224)
Experiment: pull-down; 5 ug STAT1-GST fusion protein and CAMK2D-His protein mixed with pre-washed GST-labeled protein magnetic beads (GST protein in the control group), GST-pull-down buffer, rotated overnight at 4 °C, washed three times, western blot; both purified

The chains behind the UniProt entries cited, without tags or fusion partners.
UniProt P42224: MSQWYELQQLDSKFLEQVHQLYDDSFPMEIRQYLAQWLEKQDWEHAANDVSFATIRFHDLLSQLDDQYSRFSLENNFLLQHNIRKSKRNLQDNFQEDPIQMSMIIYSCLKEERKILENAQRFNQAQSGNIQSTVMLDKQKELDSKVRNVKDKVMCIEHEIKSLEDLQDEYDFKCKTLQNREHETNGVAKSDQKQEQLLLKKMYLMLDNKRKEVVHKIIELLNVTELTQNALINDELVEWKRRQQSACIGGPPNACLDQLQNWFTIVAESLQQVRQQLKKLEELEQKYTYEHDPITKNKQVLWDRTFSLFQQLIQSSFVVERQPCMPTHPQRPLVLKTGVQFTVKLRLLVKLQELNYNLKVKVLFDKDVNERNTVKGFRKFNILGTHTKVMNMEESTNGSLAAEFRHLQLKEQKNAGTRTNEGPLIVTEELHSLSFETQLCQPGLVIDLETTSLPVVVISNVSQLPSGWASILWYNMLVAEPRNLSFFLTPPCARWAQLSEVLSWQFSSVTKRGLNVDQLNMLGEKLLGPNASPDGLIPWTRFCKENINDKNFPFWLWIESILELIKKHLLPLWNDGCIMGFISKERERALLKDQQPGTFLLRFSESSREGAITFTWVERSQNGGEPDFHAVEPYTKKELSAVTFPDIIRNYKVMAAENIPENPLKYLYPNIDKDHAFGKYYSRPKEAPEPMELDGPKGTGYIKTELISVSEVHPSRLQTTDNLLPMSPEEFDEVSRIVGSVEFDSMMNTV
UniProt Q13557: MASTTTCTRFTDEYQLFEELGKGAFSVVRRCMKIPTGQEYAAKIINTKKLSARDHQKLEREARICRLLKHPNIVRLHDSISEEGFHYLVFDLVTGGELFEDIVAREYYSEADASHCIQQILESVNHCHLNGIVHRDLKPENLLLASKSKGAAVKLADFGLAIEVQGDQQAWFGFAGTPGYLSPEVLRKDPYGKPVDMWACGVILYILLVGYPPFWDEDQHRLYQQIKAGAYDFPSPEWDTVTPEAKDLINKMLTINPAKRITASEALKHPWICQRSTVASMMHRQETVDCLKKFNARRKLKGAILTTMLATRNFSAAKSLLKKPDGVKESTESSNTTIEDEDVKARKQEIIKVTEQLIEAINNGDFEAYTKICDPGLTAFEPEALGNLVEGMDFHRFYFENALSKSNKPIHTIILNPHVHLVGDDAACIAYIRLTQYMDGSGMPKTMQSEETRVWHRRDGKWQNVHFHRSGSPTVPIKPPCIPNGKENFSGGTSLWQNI

Recombinant CAMK2D-His protein (from UniProt Q13557 1-499) (enzyme)
binding: binds

Source: article PMC11961634
